{"source": "PubChem BioAssay AID504804 | Drosophila RNAi Screening Center, 2011", "purpose": "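dsRNAs that improve Kc cell survival under doxorubicin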 (primary screen)", "system": "Drosophila Kc cells", "reagents": "long dsRNA against Drosophila genes, 0.5 µg dsRNA per well", "timing": "96 h (48 h knock-down, then 48 h drug)", "treatment": "doxorubicin 5 µg/ml for 48 h, added 48 h after dsRNA", "detection": "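Viability measured as cellular ATP by luminescence after 48 h knock-down then 48 h doxorubicin at 5 µg/ml; unnormalised plate counts for each replicate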", "direction": "raw ATP luminescence: higher = more viable cells, protection from doxorubicin", "call rule": "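z-score of 2 or more over plate mean in both duplicates, retained only when retests and separate dsRNAs confirm the protection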", "note": "The screen tested about 19,000 reagents; below is an unselected part of those with a known target gene and a result. Over the whole deposit, 47 (0.25%) are marked active. 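Signals are raw, not normalised; exact z-scores behind calls not deposited; actives needed confirmation, so some wells reaching 2 SD are inactive.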 Names joined by + are all predicted targets of the reagent."}
{"Gene": "CG33096", "DRSC id": "DRSC14440", "raw ATP luminescence, replicate 1": 31517, "raw ATP luminescence, replicate 2": 32410, "Call": "inactive"}
{"Gene": "CG4982", "DRSC id": "DRSC10465", "raw ATP luminescence, replicate 1": 1.91e5, "raw ATP luminescence, replicate 2": 1.88e5, "Call": "inactive"}
{"Gene": "l(2)03659", "DRSC id": "DRSC07269", "raw ATP luminescence, replicate 1": 50227, "raw ATP luminescence, replicate 2": 80173, "Call": "inactive"}
{"Gene": "l(2)03659", "DRSC id": "DRSC07638", "raw ATP luminescence, replicate 1": 63293, "raw ATP luminescence, replicate 2": 80460, "Call": "inactive"}
{"Gene": "CG10428", "DRSC id": "DRSC02054", "raw ATP luminescence, replicate 1": 1.09e5, "raw ATP luminescence, replicate 2": 87097, "Call": "inactive"}
{"Gene": "CG15019", "DRSC id": "DRSC08473", "raw ATP luminescence, replicate 1": 66850, "raw ATP luminescence, replicate 2": 86770, "Call": "inactive"}
{"Gene": "Gapvd1", "DRSC id": "DRSC19752", "raw ATP luminescence, replicate 1": 3.14e5, "raw ATP luminescence, replicate 2": 2.51e5, "Call": "inactive"}
{"Gene": "CG42561", "DRSC id": "DRSC05676", "raw ATP luminescence, replicate 1": 1.78e5, "raw ATP luminescence, replicate 2": 1.22e5, "Call": "inactive"}
{"Gene": "CG31206", "DRSC id": "DRSC13388", "raw ATP luminescence, replicate 1": 2.01e5, "raw ATP luminescence, replicate 2": 2.01e5, "Call": "inactive"}
{"Gene": "Pnn", "DRSC id": "DRSC16415", "raw ATP luminescence, replicate 1": 53333, "raw ATP luminescence, replicate 2": 49613, "Call": "inactive"}
{"Gene": "CG10132", "DRSC id": "DRSC02013", "raw ATP luminescence, replicate 1": 92293, "raw ATP luminescence, replicate 2": 51873, "Call": "inactive"}
{"Gene": "CG4653", "DRSC id": "DRSC19909", "raw ATP luminescence, replicate 1": 2.19e5, "raw ATP luminescence, replicate 2": 2.01e5, "Call": "inactive"}
{"Gene": "kto", "DRSC id": "DRSC10983", "raw ATP luminescence, replicate 1": 27430, "raw ATP luminescence, replicate 2": 23863, "Call": "inactive"}
{"Gene": "CG12926", "DRSC id": "DRSC06239", "raw ATP luminescence, replicate 1": 44130, "raw ATP luminescence, replicate 2": 66437, "Call": "inactive"}
{"Gene": "CG13615", "DRSC id": "DRSC14618", "raw ATP luminescence, replicate 1": 65030, "raw ATP luminescence, replicate 2": 54150, "Call": "inactive"}
{"Gene": "CG6709 + Hez", "DRSC id": "DRSC10165", "raw ATP luminescence, replicate 1": 65063, "raw ATP luminescence, replicate 2": 62247, "Call": "inactive"}
{"Gene": "CG6709 + Hez", "DRSC id": "DRSC10698", "raw ATP luminescence, replicate 1": 71843, "raw ATP luminescence, replicate 2": 60690, "Call": "inactive"}
{"Gene": "CG3548", "DRSC id": "DRSC04387", "raw ATP luminescence, replicate 1": 60160, "raw ATP luminescence, replicate 2": 52367, "Call": "inactive"}
{"Gene": "Cad74A", "DRSC id": "DRSC10636", "raw ATP luminescence, replicate 1": 55930, "raw ATP luminescence, replicate 2": 55020, "Call": "inactive"}
{"Gene": "NimB5", "DRSC id": "DRSC01885", "raw ATP luminescence, replicate 1": 54627, "raw ATP luminescence, replicate 2": 74620, "Call": "inactive"}
{"Gene": "CG14657", "DRSC id": "DRSC12219", "raw ATP luminescence, replicate 1": 55497, "raw ATP luminescence, replicate 2": 50337, "Call": "inactive"}
{"Gene": "CG14657", "DRSC id": "DRSC12243", "raw ATP luminescence, replicate 1": 40450, "raw ATP luminescence, replicate 2": 30470, "Call": "inactive"}
{"Gene": "CG13674", "DRSC id": "DRSC10033", "raw ATP luminescence, replicate 1": 54490, "raw ATP luminescence, replicate 2": 90057, "Call": "inactive"}
{"Gene": "Rab5", "DRSC id": "DRSC00777", "raw ATP luminescence, replicate 1": 1.11e5, "raw ATP luminescence, replicate 2": 69083, "Call": "inactive"}
{"Gene": "Bulli", "DRSC id": "DRSC10974", "raw ATP luminescence, replicate 1": 79740, "raw ATP luminescence, replicate 2": 85687, "Call": "inactive"}
{"Gene": "CG15027", "DRSC id": "DRSC19608", "raw ATP luminescence, replicate 1": 3.01e5, "raw ATP luminescence, replicate 2": 2.79e5, "Call": "inactive"}
{"Gene": "BBS9", "DRSC id": "DRSC04257", "raw ATP luminescence, replicate 1": 61517, "raw ATP luminescence, replicate 2": 56973, "Call": "inactive"}
{"Gene": "nst", "DRSC id": "DRSC09755", "raw ATP luminescence, replicate 1": 46283, "raw ATP luminescence, replicate 2": 57297, "Call": "inactive"}

Only “raw ATP luminescence, replicate 2” (4 entries from above):
l(2)03659 [DRSC07269]: 80173
l(2)03659 [DRSC07638]: 80460
CG10428 [DRSC02054]: 87097
CG15019 [DRSC08473]: 86770
